This note sets out measurements from publication PMC6430795.

This assay concerns the target β-amyloid precursor protein (APP), native (mouse (endogenous in brain)). Kind of assay: affinity purification with mass spectrometry; multi-epitope affinity purifications with immobilised anti-APP, anti-AJAP-1 and anti-PIANP antibodies from mouse brain membranes solubilised with CL-47 (mild) and CL-91 (intermediate stringency); knock-out brains and IgG as controls.

Results are given in words; binding and its absence hold for the method and conditions named. In cells and extracts the contact can be indirect. A yes stands for co-enrichment or nearness to the bait. Other partners may have been found. No binding means not detected with the bait.

B1: calsyntenin-2 (CSTN-2), native (protein, UniProt Q9ER65 21-966)
chain: GGSGDGGDSRRRRLLVAKVNKHKPWIETSYHGVITENNDTVILDPPLVALDKDAPVPFAGEICAFKIHGQELPFEAVVLNKTSGEGRLRAKSPIDCELQKEYTFIIQAYDCGAGPREAAWKKSHKAVVHIQVKDVNEFAPTFKEPAYKAIVTEGKIYDSILQVEAIDEDCSPQYSQICNYEIVTTDVPFAIDRNGNIRNTEKLSYDKQHQYEILVTAYDCGQKPAAQDTLVQVDVKPVCKPGWQDWTKRIEYQPGSGSMPLFPSIHLETCDGAVSSLQVTAELQTNYIGKGCDRETYSEKSLQKLCGASSGIIDLLPSPSAATNWTAGLLVDSSEMIFKFDGRQGAKIPDGIVPKNLTDQFTITMWMKHGPSPGVRAEKETILCNSDKTEMNRHHYALYVHNCRLVFLLRKDFDQADTFRPAEFHWKLDQICDKEWHYYVINVEFPVVTLYMDGATYEPYLVTNDWPIHPSHIAMQLTVGACWQGGEVAKPRFAQFFHGSLASLTIRPGKMESQKVISCLQACKEGLDINSLESLGRGIKYHFNPSQSILVMEGDDIGNINRALQKVSYINSRQFPTAGVRRLRLSSKVQCFGEDVCISIPDVDAYIMVLQAIEPQITLQGTERFWRPAAQFESARGVTLFPDIKIVSTFAKTEASGDMRATGTAPKSAVLEEMLHNLDFCDILVLGGDLDPRQECLELNHSELHQRHLDATNSTAGYSIYGVGSMNRYEQVLHHLRYRNWHPTSLETRRFRIKCSELNGRYTSNEFNLEVSVLHEVRVSDKEHVNHLIVQPPFLQSVHHPETRSSIQRSSVVPSIATVVIIISVCMLVFVVAMGVYRVRIAHQHFIQETEAAKEAEMDWDDSALTITVNPMEKHEGPGNGEDETTEVEEEEEAEEGSSSSSSGSDDSEEEEEEGMGRVRHGQSGTSSQSPERSTWNTAGVINIWK
In the case of B1, the binding result is given as “binds”.

B2: calsyntenin-1 (CSTN-1), native (protein, UniProt Q9EPL2 29-979)
chain: ARVNKHKPWLEPTYHGIVTENDNTVLLDPPLIALDKDSPLRFAESFEVTVTKEGEICGFKIHGQNVPFDAVVVDKSTGEGIIRSKEKLDCELQKDYTFTIQAYDCGKGPDGTGVKKSHKATVHIQVNDVNEYAPVFKEKSYKAAVVEGKQHSSILRVEAVDADCSPQFSQICSYEILTPDVPFTVDKDGYIKNTEKLNYGKEHQYKLTVTAYDCGKKRATEDVLVKISVKPTCSPGWQGWSSRIEYEPGTGALAVFPSIHLETCDEPVASVQATVELETSHIGKGCDRDTYSEKSLHRLCGAAAGTSELLPSPSSSFNWTVGLPTDNGHDSDQVFEFNGTQAVRIPDGVVTLDPKEPFTISVWMRHGPFGRKKETILCSSDKTDMNRHHYSLYVHGCRLVFLLRQDPSEEKKYRPAEFHWKLNQVCDEDWHHFVLNVEVPSVTLYVDGIPHEPFSVTEDYPLHPTKIETQLVVGACWQEYSGVESGNETEPATMASAGGDLHMTQFFRGNLAGLTVRSGKLADKKVIDCLYTCKEGLDLQVPEDANRGVQIQASSSQAVLTLEGDNVGELDKAMQHISYLNSRQFPTPGIRRLKITSTVKCFNEAACIEVPPVEGYVMVLQPEEPKISLSGVHHFARAASEFESAEGISLFPELRIISTITREVEPEADGSEDPTVQESLVSEEIVHDLDTCEVTVEGDELNAEQESLEVDVTRLQQKGIEASHSDLGVVFTGVETMASYEEVLHLLRYRNWHTRSLLDRKFKLICSELNGRYLSNEFKVEVNVIHTANPVEHANHMAAQPQFVHPEHRSFVDLSGHNLANPHPFAVVPSTATVVIVVCVSFLVFMIILGVFRIRAAHQRTMRDQDTGKENEMDWDDSALTITVNPMETYEDQHSSEEEEEEEEEEESEDGEEEEDITSAESESSEEEEGGPGDGQNATRQLEWDDSTLSY
Turning to B2, the binding result is “binds”.

B3: ITM2C, native (protein, UniProt Q91VK4 1-269)
chain: MVKISFQPAVAGIKADKADKAAASGPASASAPAAEILLTPAREERPPRHRSRKGGSVGGVCYLSMGMVVLLMGLVFASVYIYRYFFLAQLARDNFFHCGVLYEDSLSSQIRTRLELEEDVKIYLEENYERINVPVPQFGGGDPADIIHDFQRGLTAYHDISLDKCYVIELNTTIVLPPRNFWELLMNVKRGTYLPQTYIIQEEMVVTEHVRDKEALGSFIYHLCNGKDTYRLRRRSTRRRINKRGGKNCNAIRHFENTFVVETLICGVV
Turning to B3, the binding entry is recorded as “binds”.

B4: calsyntenin-3 (CSTN-3), native (protein, UniProt Q99JH7 20-956)
chain: NKANKHKPWIEAEYQGIVMENDNTVLLNPPLFALDKDAPLRYAGEICGFRLHGSGVPFEAVILDKATGEGLIRAKEPVDCEAQKEHTFTIQAYDCGEGPDGTNTKKSHKATVHVRVNDVNEFAPVFVERLYRAAVTEGKLYDRILRVEAIDGDCSPQYSQICYYEILTPNTPFLIDNDGNIENTEKLQYSGEKLYKFTVTAYDCGKKRAADDAEVEIQVKPTCKPSWQGWNKRIEYAPGAGSLALFPGIRLETCDEPLWNIQATIELQTSHVAKGCDRDNYSERALRKLCGAATGEVDLLPMPGPNANWTAGLSVHYSQDSSLIYWFNGTQAVQVPLGGPAGLGSGPQDGFSDHFTLSFWMKHSVTPSKGKKEEETIVCNTVQNEDGYSHYSLTVHGCRIAFLYWPLLESARPVKFLWKLEQVCDDEWHHYALNLEFPTVTLYTDGISFDPALIHDNGLIHPPRREPALMIGACWTEEKNKEKKGGENSTDTASGDPLLIHHYFHGYLAGFSVRSGRLESREVIECLYACREGLDYRDFESLGKGMKVHVNPSQSLLTLEGDDVETFNHALQHVAYMNTLRFATPGVRPLRLTTAVKCFSEESCVSIPEVEGYVVVLQPDAPQILLSGTAHFARPAVDFEGPEGVPLFPDLQITCSISHQVEAKADESWQGTVTDTRMSDEIVHNLDGCEISLVGDDLDPERESLLLDMASLQQRGLELTNTSAYLTIAGVETITVYEEILRQARYQLRHGAALYARKFRLSCSEMNGRYSSNEFIVEVNVLHSMNRVAHPSHVLSSQQFLHRGHQPPPEMAGHSLASSHRNSMVPSAATLIIVVCVGFLVLMVILGLVRIHSLHRRVSGTGGPSGASTDPKDPDLFWDDSALTIIVNPMESYQNQQTCVAGVAGGQQEEEDSSDSEAADSPSSDERRIIESPPHRY
In the case of B4, the binding entry was “binds”.

B5: NSG2, native (protein, UniProt P47759 1-171)
chain: MVKLNSNPGEKGAKPPSVEDGFQTVPLITPLEVNHLQLAAPEKVIVKTRTEYQPEQRNKGKFRVPKIAEFTVTILVSLALAFLACIVFLVVYKAFTYDHSCPEGFVYKHKRCIPASLDAYYSSQDPSSRSRFYTVISHYSVAKQSTARAIGPWLSAAAVIHEPKPPKTQGH
As to B5, the binding result is listed as “binds”.

B6: JIP-3, native (protein, UniProt Q9ESN9 1-1337)
chain: MMEIQMDEGGGVVVYQDDYCSGSVMSERVSGLAGSIYREFERLIHCYDEEVVKELMPLVVNVLENLDSVLSENQEHEVELELLREDNEQLLTQYEREKALRKQAEEKFIEFEDALEQEKKELQIQVEHYEFQTRQLELKAKNYADQISRLEERESEMKKEYNALHQRHTEMIQTYVEHIERSKMQQVGGSGQTESSLPGRSRKERPTSLNVFPLADGMVRAQMGGKLVPAGDHWHLSDLGQLQSSSSYQCPNDEMSESGQSSAAATPSTTGTKSNTPTSSVPSAAVTPLNESLQPLGDYVSVTKNNKQAREKRNSRNMEVQVTQEMRNVSIGMGSSDEWSDVQDIIDSTPELDVCPETRLERTGSSPTQGIVNKAFGINTDSLYHELSTAGSEVIGDVDEGADLLGEFSVRDDFFGMGKEVGNLLLENSQLLETKNALNVVKNDLIAKVDQLSGEQEVLKGELEAAKQAKVKLENRIKELEEELKRVKSEAVTARREPREEVEDVSSYLCTELDKIPMAQRRRFTRVEMARVLMERNQYKERLMELQEAVRWTEMIRASREHPSVQEKKKSTIWQFFSRLFSSSSSPPPAKRSYPSVNIHYKSPTAAGFSQRRSHALCQISAGSRPLEFFPDDDCTSSARREQKREQYRQVREHVRNDDGRLQACGWSLPAKYKQLSPNGGQEDTRMKNVPVPVYCRPLVEKDPSTKLWCAAGVNLSGWKPHEEDSSNGPKPVPGRDPLTCDREGEGEPKSTHPSPEKKKAKETPEADATSSRVWILTSTLTTSKVVIIDANQPGTIVDQFTVCNAHVLCISSIPAASDSDYPPGEMFLDSDVNPEDSGADGVLAGITLVGCATRCNVPRSNCSSRGDTPVLDKGQGDVATTANGKVNPSQSTEEATEATEVPDPGPSESEATTVRPGPLTEHVFTDPAPTPSSSTQPASENGSESNGTIVQPQVEPSGELSTTTSSAAPTMWLGAQNGWLYVHSAVANWKKCLHSIKLKDSVLSLVHVKGRVLVALADGTLAIFHRGEDGQWDLSNYHLMDLGHPHHSIRCMAVVNDRVWCGYKNKVHVIQPKTMQIEKSFDAHPRRESQVRQLAWIGDGVWVSIRLDSTLRLYHAHTHQHLQDVDIEPYVSKMLGTGKLGFSFVRITALLIAGNRLWVGTGNGVVISIPLTETVVLHRGQLLGLRANKTSPTSGEGTRPGGIIHVYGDDSSDKAASSFIPYCSMAQAQLCFHGHRDAVKFFVSVPGNVLATLNGSVLDSPSEGPGPAAPAADAEGQKLKNALVLSGGEGYIDFRIGDGEDDETEECAGDVNQTKPSLSKAERSHIIVWQVSYTPE
With B6, the binding entry is given as “no binding”.

B7: JIP-1, native (protein, UniProt Q9WVI9 1-707)
chain: MAERESGLGGGAASPPAASPFLGLHIASPPNFRLTHDISLEEFEDEDLSEITDECGISLQCKDTLSLRPPRAGLLSAGSSGSAGSRLQAEMLQMDLIDAAGDTPGAEDDEEEEDDELAAQRPGVGPPKAESNQDPAPRSQGQGPGTGSGDTYRPKRPTTLNLFPQVPRSQDTLNNNSLGKKHSWQDRVSRSSSPLKTGEQTPPHEHICLSDELPPQGSPVPTQDRGTSTDSPCRRSAATQMAPPSGPPATAPGGRGHSHRDRIHYQADVRLEATEEIYLTPVQRPPDPAEPTSTFMPPTESRMSVSSDPDPAAYSVTAGRPHPSISEEDEGFDCLSSPERAEPPGGGWRGSLGEPPPPPRASLSSDTSALSYDSVKYTLVVDEHAQLELVSLRPCFGDYSDESDSATVYDNCASASSPYESAIGEEYEEAPQPRPPTCLSEDSTPDEPDVHFSKKFLNVFMSGRSRSSSAESFGLFSCVINGEEHEQTHRAIFRFVPRHEDELELEVDDPLLVELQAEDYWYEAYNMRTGARGVFPAYYAIEVTKEPEHMAALAKNSDWIDQFRVKFLGSVQVPYHKGNDVLCAAMQKIATTRRLTVHFNPPSSCVLEISVRGVKIGVKADDALEAKGNKCSHFFQLKNISFCGYHPKNNKYFGFITKHPADHRFACHVFVSEDSTKALAESVGRAFQQFYKQFVEYTCPTEDIYLE
Turning to B7, the binding result is reported as “no binding”.
